{"source": "paper PMC3927958", "target": "T1, junctional adhesion molecule-A (mouse (endogenous in lung endothelial cells)) (UniProt O88792)", "T1 sequence": "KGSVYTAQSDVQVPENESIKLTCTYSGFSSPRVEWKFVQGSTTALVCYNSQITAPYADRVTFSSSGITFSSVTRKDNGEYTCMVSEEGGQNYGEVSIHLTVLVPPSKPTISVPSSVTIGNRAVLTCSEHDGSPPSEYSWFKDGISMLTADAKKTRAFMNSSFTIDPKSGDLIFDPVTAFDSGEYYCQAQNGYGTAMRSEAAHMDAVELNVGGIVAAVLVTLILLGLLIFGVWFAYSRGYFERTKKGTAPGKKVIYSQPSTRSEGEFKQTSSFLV", "assay": "co-IP; confluent murine JAM-A-WT endothelial cells incubated with dithiobis-(succinimidyl) propionate (cross-linker) 30 min at 37°C, lysed in RIPA buffer; JAM-A or EPAC-2 immunoprecipitated overnight from 8 mg total extract, IgG as control; immunoblotting", "note": "Results are given in words; binding and its absence hold for the method and conditions named. In cells and extracts the contact can be indirect. Binding can be weak; no strength is given.", "data": [{"substance": "small GTPase Rap-1", "values": [{"measurement": "binding", "value": "binds"}]}]}
